Here are results for three molecules from article PMC12586438.

No constants are given. Whether binding was seen depends on the method and setting. Binding seen in cells or lysates may run through a third protein. Some results given as binding are weak or reduced against the parent protein; the word gives no strength. For part of these data: Tags and fused reporters may be left off the sequences shown.

Test [1] has as its target T1, Fas apoptotic inhibitory molecule 2 (Flag-FAIM2) (UniProt Q9BWQ8).
T1 sequence: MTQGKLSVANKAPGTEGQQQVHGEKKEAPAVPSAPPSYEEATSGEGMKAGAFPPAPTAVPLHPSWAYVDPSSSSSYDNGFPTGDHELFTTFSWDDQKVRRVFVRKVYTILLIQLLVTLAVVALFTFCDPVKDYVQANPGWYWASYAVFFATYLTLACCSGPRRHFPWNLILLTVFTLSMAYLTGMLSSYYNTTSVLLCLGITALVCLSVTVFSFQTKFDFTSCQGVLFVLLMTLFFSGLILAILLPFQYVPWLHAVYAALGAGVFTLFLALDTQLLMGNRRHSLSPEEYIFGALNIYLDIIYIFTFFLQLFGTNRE
The test is described as follows: co-IP; HEK293T cells transfected with the indicated plasmids; immunoprecipitation and western blot.

Test [2] addresses T2, FAIM2 of the GST pulldown assay (UniProt Q9BWQ8).
T2 sequence: T1 sequence
Put plainly: pull-down; GST pulldown assay and western blot, 'in HEK293T cells'; which partner carried GST not stated.

Test [3] has as its target T3, FAIM2 in PAOA-treated hepatocytes (UniProt Q8K097).
T3 sequence: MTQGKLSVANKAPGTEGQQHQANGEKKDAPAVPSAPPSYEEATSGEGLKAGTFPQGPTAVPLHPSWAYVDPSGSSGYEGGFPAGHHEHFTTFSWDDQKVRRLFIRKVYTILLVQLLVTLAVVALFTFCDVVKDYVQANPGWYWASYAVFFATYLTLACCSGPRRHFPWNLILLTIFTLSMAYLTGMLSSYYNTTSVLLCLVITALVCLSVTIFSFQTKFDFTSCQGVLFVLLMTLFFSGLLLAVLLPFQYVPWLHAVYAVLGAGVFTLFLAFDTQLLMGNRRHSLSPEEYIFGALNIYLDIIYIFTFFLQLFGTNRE
The test is described as follows: co-IP; PAOA-treated hepatocytes; immunoprecipitation and western blot.

B1: CREB-regulated transcription coactivator 2 (HA-CRTC2) (protein, UniProt Q53ET0 1-693)
chain: MATSGANGPGSATASASNPRKFSEKIALQKQRQAEETAAFEEVMMDIGSTRLQAQKLRLAYTRSSHYGGSLPNVNQIGSGLAEFQSPLHSPLDSSRSTRHHGLVERVQRDPRRMVSPLRRYTRHIDSSPYSPAYLSPPPESSWRRTMAWGNFPAEKGQLFRLPSALNRTSSDSALHTSVMNPSPQDTYPGPTPPSILPSRRGGILDGEMDPKVPAIEENLLDDKHLLKPWDAKKLSSSSSRPRSCEVPGINIFPSPDQPANVPVLPPAMNTGGSLPDLTNLHFPPPLPTPLDPEETAYPSLSGGNSTSNLTHTMTHLGISRGMGLGPGYDAPGLHSPLSHPSLQSSLSNPNLQASLSSPQPQLQGSHSHPSLPASSLARHVLPTTSLGHPSLSAPALSSSSSSSSTSSPVLGAPSYPASTPGASPHHRRVPLSPLSLLAGPADARRSQQQLPKQFSPTMSPTLSSITQGVPLDTSKLSTDQRLPPYPYSSPSLVLPTQPHTPKSLQQPGLPSQSCSVQSSGGQPPGRQSHYGTPYPPGPSGHGQQSYHRPMSDFNLGNLEQFSMESPSASLVLDPPGFSEGPGFLGGEGPMGGPQDPHTFNHQNLTHCSRHGSGPNIILTGDSSPGFSKEIAAALAGVPGFEVSAAGLELGLGLEDELRMEPLGLEGLNMLSDPCALLPDPAVEESFRSDRLQ
For the molecule B1, the binding result in test [1] is “binds”.

B2: CRTC2 of the GST pulldown assay (protein, UniProt Q53ET0 1-693)
chain: B1 chain
Regarding B2, the binding entry in test [2] was “binds”.

B3: CRTC2 in PAOA-treated hepatocytes (protein, UniProt Q3U182 1-692)
chain: MATSGANGPGSATASASNPRKFSEKIALQKQRQAEETAAFEEVMMDIGSTRLQAQKLRLAYTRSSHYGGSLPNVNQIGCGLAEFQSPLHSPLDSSRSTRHHGLVERVQRDARRMVSPLRRYPRHIDSSPYSPAYLSPPPESGWRRMMPWGNLPAEKGQLFRLPSALNRTSSDSALHTSVMNPNPQDTYPGPTPPSVLPSRRGGGFLDGEMDAKVPAIEENVVDDKHLLKPWDAKKLSSSSSRPRSCEVPGINIFPSPDQPANVPVLPPAMNTGGSLPDLTNLHFPPPLPTPLDPEETVYPSLSGGNSTTNLTHTMTHLGISGGLGLGPSYDVPGLHSPLSHPSLQSSLSNPNLQASLSSPQPQLQGSHSHPSLPASSLAHHALPTTSLGHPSLSAPALSSSSSSSSTSSPVLSAPPYPASTPGASPRHRRVPLSPLSLPAGPADARRSQQQLPKQFSPTMSPTLSSITQGVPLDTSKLPTDQRLPPYPYSPPSLVIPTHPPTPKSLQQLPSQACLVQPSGGQPPGRQPHYGALYPPGSSGHGQQPYHRPINDFSLGNLEQFNMESPSTSLVLDPPAFSEGPGFLGSEGSMSGPQDPHVLNHQNLTHCSRHGSGPNIILTGDSSPGFSKEIAAALAGVPGFEVSASGLELGLGLEDELRMEPLGLEGLTMLSDPCALLPDPAVEDSFRSDRLQ
As to B3, the binding result in test [3] is recorded as “binds”.
